Test results: PMC10765824
These are yes or no findings as the source states them, for the method shown. In cells and extracts the contact can be indirect. Some results given as binding are weak or reduced against the parent protein; the word gives no strength. For some assays here: Sequences can lack the tags named with a protein.

The chains behind the UniProt entries cited, without tags or fusion partners.
UniProt O60260: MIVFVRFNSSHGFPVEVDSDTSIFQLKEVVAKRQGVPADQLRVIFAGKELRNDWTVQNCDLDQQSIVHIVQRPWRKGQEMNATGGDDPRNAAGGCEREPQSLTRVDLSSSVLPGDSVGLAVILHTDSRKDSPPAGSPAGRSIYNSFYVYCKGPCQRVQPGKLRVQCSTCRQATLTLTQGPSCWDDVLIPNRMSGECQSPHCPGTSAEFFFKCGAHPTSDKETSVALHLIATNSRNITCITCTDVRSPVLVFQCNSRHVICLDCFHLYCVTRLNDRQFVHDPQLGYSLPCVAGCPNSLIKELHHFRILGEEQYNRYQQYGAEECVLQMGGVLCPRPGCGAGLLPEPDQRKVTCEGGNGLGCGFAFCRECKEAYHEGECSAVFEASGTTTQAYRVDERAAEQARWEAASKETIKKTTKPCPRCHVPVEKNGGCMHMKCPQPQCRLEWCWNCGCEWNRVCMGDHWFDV
UniProt P09874: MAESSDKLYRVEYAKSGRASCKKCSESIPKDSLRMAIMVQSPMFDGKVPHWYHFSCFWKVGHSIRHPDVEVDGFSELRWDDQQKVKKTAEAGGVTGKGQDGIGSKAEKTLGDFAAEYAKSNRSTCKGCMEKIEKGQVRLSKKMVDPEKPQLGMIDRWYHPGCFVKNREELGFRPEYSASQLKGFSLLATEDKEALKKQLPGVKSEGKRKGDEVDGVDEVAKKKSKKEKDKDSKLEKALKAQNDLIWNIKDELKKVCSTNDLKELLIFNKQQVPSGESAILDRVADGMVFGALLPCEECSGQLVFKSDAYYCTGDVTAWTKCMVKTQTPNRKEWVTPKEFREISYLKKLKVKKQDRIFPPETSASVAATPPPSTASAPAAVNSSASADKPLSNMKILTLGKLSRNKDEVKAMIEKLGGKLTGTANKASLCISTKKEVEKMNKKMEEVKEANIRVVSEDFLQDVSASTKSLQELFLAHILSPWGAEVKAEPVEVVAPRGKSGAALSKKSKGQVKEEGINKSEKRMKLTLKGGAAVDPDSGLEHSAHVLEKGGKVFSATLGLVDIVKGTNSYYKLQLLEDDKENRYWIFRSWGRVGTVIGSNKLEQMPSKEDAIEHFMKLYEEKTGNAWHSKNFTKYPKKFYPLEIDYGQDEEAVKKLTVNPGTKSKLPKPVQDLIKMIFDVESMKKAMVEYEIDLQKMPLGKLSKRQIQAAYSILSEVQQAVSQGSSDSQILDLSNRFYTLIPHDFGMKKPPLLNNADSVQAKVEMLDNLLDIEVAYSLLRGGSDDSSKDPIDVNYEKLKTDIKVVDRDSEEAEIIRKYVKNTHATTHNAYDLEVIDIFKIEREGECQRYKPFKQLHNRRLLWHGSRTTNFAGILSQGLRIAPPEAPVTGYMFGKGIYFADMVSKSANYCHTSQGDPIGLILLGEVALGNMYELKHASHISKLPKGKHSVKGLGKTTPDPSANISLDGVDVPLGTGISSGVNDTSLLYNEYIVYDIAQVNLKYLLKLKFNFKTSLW

Legend:
Flag-parkin = Flag-parkin (UniProt O60260); experiment: co-IP; Hek293 co-transfected with Myc-AIMP2 or Myc-DX2 and Flag-parkin, harvested after 24 h; lysate (1% Triton X-100 in PBS) immunoprecipitated by flag antibody, protein A/G agarose, 4 °C
GFP- or myc-tagged AIMP2 [1] = target: T1, GFP- or myc-tagged AIMP2 (UniProt Q13155); experiment: co-IP; GFP- or myc-tagged AIMP2 and/or DX2 plasmids transfected into cells; lysate immunoprecipitated with GFP antibody (opposite direction)
T1 sequence: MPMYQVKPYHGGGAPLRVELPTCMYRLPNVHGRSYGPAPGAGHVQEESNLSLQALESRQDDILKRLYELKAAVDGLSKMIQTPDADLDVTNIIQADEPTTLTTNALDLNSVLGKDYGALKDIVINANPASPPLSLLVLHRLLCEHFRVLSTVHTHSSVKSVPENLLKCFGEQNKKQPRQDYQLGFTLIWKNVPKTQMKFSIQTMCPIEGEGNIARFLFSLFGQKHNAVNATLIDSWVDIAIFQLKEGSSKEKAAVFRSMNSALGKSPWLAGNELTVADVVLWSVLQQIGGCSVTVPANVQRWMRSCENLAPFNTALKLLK

GFP- or myc-tagged DX2 [2] = target: GFP- or myc-tagged DX2 (UniProt Q13155); experiment: as above
GFP- or myc-tagged AIMP2 [3] = target: T1, GFP- or myc-tagged AIMP2; experiment: co-IP; GFP- or myc-tagged AIMP2 and/or DX2 plasmids transfected into cells; lysate immunoprecipitated with myc antibody
GFP- or myc-tagged DX2 [4] = target: GFP- or myc-tagged DX2 (UniProt Q13155); experiment: as above
[5] = target: Poly(ADP-ribose) polymerase-1 (human (endogenous in SH-SY5Y)) (UniProt P09874); experiment: co-IP; called PARP-1 pull-down assay; SH-SY5Y transfected with AIMP2 or DX2 plasmid; lysate precipitated with PARP-1 antibody, Western blot
[6] = target: Poly(ADP-ribose) polymerase-1 (human (endogenous in SH-SY5Y)) (UniProt P09874); experiment: co-IP; SH-SY5Y after DX2 overexpression, or 48 h after DX2 siRNA or control siRNA; total lysate, PARP-1 immunoprecipitated with protein agarose beads, AIMP2 by immunoblot
[7] = target: T2, GFP- or myc-tagged AIMP2, Q13155; experiment: co-IP; GFP- or myc-tagged AIMP2 and/or DX2 plasmids transfected into cells; lysate immunoprecipitated with myc antibody; conditions: remark: other sources report otherwise
T2 chain: T1 sequence

[8] = target: T2, GFP- or myc-tagged AIMP2, Q13155; experiment: co-IP; GFP- or myc-tagged AIMP2 and/or DX2 plasmids transfected into cells; lysate immunoprecipitated with GFP antibody (opposite direction); conditions: remark: other sources report otherwise

B1: Myc-tagged AIMP2 (protein, UniProt Q13155 1-320)
chain: T1 sequence
With B1 the binding (Flag-parkin) was “binds”.

B2: GFP- or myc-tagged DX2 (protein, UniProt Q13155-2 1-251)
chain: MPMYQVKPYHGGGAPLRVELPTCMYRLPNVHGRSYGPAPGAGHVQDYGALKDIVINANPASPPLSLLVLHRLLCEHFRVLSTVHTHSSVKSVPENLLKCFGEQNKKQPRQDYQLGFTLIWKNVPKTQMKFSIQTMCPIEGEGNIARFLFSLFGQKHNAVNATLIDSWVDIAIFQLKEGSSKEKAAVFRSMNSALGKSPWLAGNELTVADVVLWSVLQQIGGCSVTVPANVQRWMRSCENLAPFNTALKLLK
With B2 the binding (GFP- or myc-tagged AIMP2 [1]) was “binds”, the binding (GFP- or myc-tagged DX2 [2]) was “binds weakly” and the binding (GFP- or myc-tagged AIMP2 [3]) was “binds”. For the same binder, the binding (GFP- or myc-tagged DX2 [4]) was “binds weakly”.

B3: Myc-tagged DX2 (protein, UniProt Q13155-2 1-251)
chain: B2 chain
For B3, the binding (Flag-parkin) was “binds”.

B4: DX2 (transfected in SH-SY5Y) (protein, UniProt Q13155-2 1-251)
chain: B2 chain
For B4, the binding [5] was “binds”.

B5: AIMP2 (transfected in SH-SY5Y) (protein, UniProt Q13155 1-320)
chain: T1 sequence
B5 was tested, and the binding [5] was “binds”.

B6: AIMP2 (in SH-SY5Y cells with DX2 overexpression or DX2 siRNA) (protein, UniProt Q13155 1-320)
chain: T1 sequence
B6 was tested, and the binding [6] was “binds”.

B7: GFP- or myc-tagged AIMP2, Q13155 1-320 (protein)
chain: T1 sequence
For B7, the binding [7] was “binds” and the binding [8] was “binds”.
